Several values for one entry are separate records, joined by “and”; a condition that tells them apart may be missing. Identical values can stand only once. The whole screen tested about 390,000 compounds, of which about 820 (0.21%) were called active. The shares of active, inactive and inconclusive entries below differ from those in the screen. Calls come from the whole dose curve; as a rule, active = well fitted inhibition curve with a large enough effect; inconclusive = small, poorly fitted or top-dose-only effect, or another doubt; inactive = no such curve, though single readings can be large or run the other way. Potencies of inconclusive entries are doubtful fits and often do not repeat.
The compounds below were run against Histone acetyltransferase KAT2A (Homo sapiens) (UniProt Q92830) (assay: qHTS Assay for Inhibitors of GCN5L2). Settings: GCN5L2 HAT assay, ThioGlo1 CoA-SH fluorescence; series mostly up to 58.9 µM.
Method in brief: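 GCN5L2 (20nM final) in 50mM HEPES, 0.1mM EDTA pH 7.5, 0.01% Tween-20 was preincubated 15 min at room temperature with compound, then given ThioGlo1 (50uM), H3(1-25) peptide (75uM) and acetyl-CoA (70uM); CoA-thiol fluorescence (Ex340/Em540) was read at 0 and 20 min.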
Potency is the fitted concentration of half-maximal effect.

The chains behind the UniProt entries cited, without tags or fusion partners.
UniProt Q92830, whole entry, looked up: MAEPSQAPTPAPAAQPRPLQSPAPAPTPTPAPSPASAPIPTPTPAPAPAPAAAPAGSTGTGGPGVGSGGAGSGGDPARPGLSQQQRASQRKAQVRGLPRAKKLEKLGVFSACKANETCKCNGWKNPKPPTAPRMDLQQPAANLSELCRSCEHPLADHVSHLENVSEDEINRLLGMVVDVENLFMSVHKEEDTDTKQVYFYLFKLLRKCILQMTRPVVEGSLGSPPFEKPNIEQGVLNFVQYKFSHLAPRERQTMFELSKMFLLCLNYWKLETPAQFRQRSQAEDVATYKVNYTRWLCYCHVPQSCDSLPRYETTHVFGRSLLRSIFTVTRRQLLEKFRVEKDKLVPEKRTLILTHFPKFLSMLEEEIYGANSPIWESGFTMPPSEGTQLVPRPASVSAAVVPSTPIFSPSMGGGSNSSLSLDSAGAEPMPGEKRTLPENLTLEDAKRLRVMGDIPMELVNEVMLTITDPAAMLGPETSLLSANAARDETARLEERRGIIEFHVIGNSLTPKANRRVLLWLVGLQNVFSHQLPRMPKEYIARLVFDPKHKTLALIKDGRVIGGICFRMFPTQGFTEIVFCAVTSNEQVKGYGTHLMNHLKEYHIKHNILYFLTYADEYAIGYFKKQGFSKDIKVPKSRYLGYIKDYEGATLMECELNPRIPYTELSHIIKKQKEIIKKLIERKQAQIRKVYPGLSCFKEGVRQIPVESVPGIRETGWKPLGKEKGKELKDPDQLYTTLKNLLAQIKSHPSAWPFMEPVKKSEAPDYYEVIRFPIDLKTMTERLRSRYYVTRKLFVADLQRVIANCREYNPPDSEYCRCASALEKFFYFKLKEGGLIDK

| Compound | Potency |
| --- | --- |
| O=S(=O)(NNc1ccc(Cl)nn1)c1ccc(F)cc1 | inactive |
| CCCCOc1ccc(Cc2n[nH]c(=S)n2N)cc1 | inconclusive: 31.6 µM [inhibitor, single point] |
| COC(=O)c1c(-c2ccc(Cl)cc2)noc1N1CCN(c2cc(C)ccc2C)CC1 | inactive |
| Cc1sc2nc(SCc3nc4ccccc4[nH]3)n(Cc3ccco3)c(=O)c2c1C | inconclusive: 25.1 µM [inhibitor, single point] |
| Cc1cccc(N(C)C(=O)CCS(=O)(=O)c2cc3c(cc2Cl)NC(=O)CO3)c1 | inconclusive: 39.8 µM [inhibitor, single point] |
| CC(=O)c1c(C)[nH]c(C(=O)COC(=O)CCCOc2ccccc2)c1C | inactive |
| Cc1cccc(NC(=O)CNC(=O)CN2C(=O)NC3(CCCCC3C)C2=O)c1C (stereo not given) | inconclusive: 31.6 µM [inhibitor, single point] |
| O=C(Nc1cccc(S(=O)(=O)Nc2ccccc2F)c1)c1ccc2ccccc2n1 | inconclusive: 25.1 µM [inhibitor, partial curve] |
| CC(=O)Nc1nc2cc3c(cc2s1)OCCO3 | inconclusive: 6.31 µM [inhibitor, partial curve] |
| C=CCn1c(CSCc2ccccc2)nnc1SCC(=O)NCc1ccccc1 | inconclusive: 0.708 µM [inhibitor, single point] |
| COc1ccc(C2c3cc(OC)c(OC)cc3CC(=O)N2c2ccc(C)cc2)cc1 (stereo not given) | inactive |
| Cc1cc(C)cc(NC(=O)C2(c3ccccc3)CC2(Cl)Cl)c1 (stereo not given) | inconclusive: 1 µM [inhibitor, partial curve, poor fit] |
| CCCCn1c(N)c(N(CCOC)C(=O)c2ccc3c(c2)C(=O)N(c2ccccc2C)C3=O)c(=O)[nH]c1=O | inconclusive: 3.55 µM [inhibitor, single point] |
| Cc1ccc2cc(C#N)c(N3CCN(C(=O)c4ccccc4)CC3)nc2c1 | inconclusive: 0.794 µM [inhibitor, single point] |
| CCOc1ccccc1NC(=O)CSc1nncc2ccccc12 | inconclusive: 3.55 µM [inhibitor, full curve] |
| CN(C(=O)CCN1C(=O)S/C(=C\c2ccccc2)C1=O)C1CCS(=O)(=O)C1 (stereo not given) | inactive |
| CN1c2ccccc2C(=O)C(=C2SCCCS2)S1(=O)=O | inconclusive: 39.8 µM [inhibitor, single point] |
| O=C(/C=C/c1ccc(Br)o1)OCc1nc2ccsc2c(=O)[nH]1 | inconclusive: 11.2 µM [inhibitor, partial curve] |
| O=P(O)(O)O[C@@H]1[C@H](O)[C@H](O)[C@@H](OP(=O)(O)O)[C@H](OP(=O)(O)O)[C@H]1O | inactive |
| COC(=O)Cc1[nH]n(-c2nc3ccccc3s2)c(=O)c1C(C)=O | inactive |
| CC(=O)Nc1ccc(S(=O)(=O)/N=C2/NC(=O)/C(=C\c3ccco3)S2)cc1 | inconclusive: 39.8 µM [inhibitor, single point] |
| Cc1ccccc1NC(=O)Cn1c(O)c(N=NC(=O)c2ccccc2O)c2ccccc21 | inconclusive: 10 µM [inhibitor, partial curve] |
| Cc1c(C)c2c(c(C)c1O)CCC(C)(COc1ccc(CC3SC(=O)NC3=O)cc1)O2 (stereo not given) | inconclusive: 39.8 µM [inhibitor, single point] and inconclusive: 25.1 µM [inhibitor, single point] and inconclusive: 31.6 µM [inhibitor, single point] |

| Compound | Potency |
| --- | --- |
| O=C(Nc1cccc(Cl)c1)Nc1cnccn1 | inconclusive: 0.631 µM [inhibitor, single point] |
| COCCNC(=O)C1Cc2cc(S(=O)(=O)N3CCCC3)ccc2N1C(C)=O (stereo not given) | inconclusive: 0.316 µM [inhibitor, full curve, poor fit] |
| C=CCN1CCN(C(=O)c2c(-c3ccccc3)noc2C)CC1 | inconclusive: 1.58 µM [inhibitor, full curve, poor fit] |
| NC1=NC[C@@H](Cc2ccc(O)cc2)N1CCc1cccc2ccccc12 | inactive |
| CCC(=O)Oc1ccc2c(C)cc(=O)oc2c1C | inactive |
| CC1(C)Cc2nc3nc(SCC(=O)NCCc4ccccc4)n(-c4ccccc4)c(=O)c3cc2CO1 | inconclusive: 39.8 µM [inhibitor, single point] |
| Nc1ccc(CCc2nc3ccccc3o2)cc1 | inconclusive: 28.2 µM [inhibitor, partial curve, poor fit] |
| Cc1[nH]c(=O)[nH]c(=O)c1S(=O)(=O)N1CCCC(C(=O)NCCc2ccc(Cl)cc2)C1 (stereo not given) | inconclusive: 6.31 µM [inhibitor, single point] |
| Cc1ccc(-c2cc(C(=O)NCCN3CCOCC3)c3ccccc3n2)o1 | active: 12.6 µM |
| O=S(=O)(c1ccc(NC(=S)NC2CCCC2)cc1)N1CCCC1 | inactive |
| COc1cccc(CNC(=O)C2CCN(c3nnc(-n4c(C)ccc4C)s3)CC2)c1 | inactive |
| Cc1cc(NC(=O)C(C)C)ncc1NC(=O)c1ccccn1 | inactive |
| NS(=O)(=O)c1ccc(CCNC(=O)c2ccc3nccnc3c2)cc1 | inconclusive: 17.8 µM [inhibitor, single point] |
| CCSc1nnc2c(n1)OC(CC)N(C(C)=O)c1ccccc1-2 (stereo not given) | inactive |
| COCCCn1nnnc1SCC(=O)Nc1nc2ccccc2s1 | inactive |
| CCOC(=O)C1CCCN(Cc2nc(N)nc(Nc3ccccc3)n2)C1 (stereo not given) | inactive |
| C=C(C)CSC1=C(C#N)C(c2ccccc2Cl)CC(=O)N1 (stereo not given) | inactive |
| Cc1ccc(CNc2cc(C(=O)O)ccc2Cl)s1 | inconclusive: 7.08 µM [inhibitor, single point] |
| COc1ccccc1Oc1cc(F)nc(N)n1 | inconclusive: 3.16 µM [inhibitor, single point] |
| CCN(C(=O)c1cn(C)c(=O)c2cc(OC)c(OC)cc12)c1ccccc1C | inconclusive: 7.08 µM [inhibitor, single point] |
| O=C1OC2(c3ccccc31)c1cc(I)c(O)c(I)c1Oc1c2cc(I)c(O)c1I | active: 4.47 µM and active: 8.91 µM |
| O=[N+]([O-])/C=C/c1cn(Cc2ccc(Cl)cc2)c2ccccc12 | inactive |

— PubChem BioAssay AID504327 (National Center for Advancing Translational Sciences (NCATS), 2011)
